Screen size: about 1,200 compounds; fewer than 10 were called active. Calls come from the whole dose curve; as a rule, active = well fitted curve in the direction sought with a large enough effect; inconclusive = small, poorly fitted or top-dose-only effect, or another doubt; inactive = no such curve, though single readings can be large or run the other way. This is one part of the list.
What follows are compounds tested against Transcriptional regulator ERG (Homo sapiens) (UniProt P11308) (assay: qHTS for Small Molecule Inhibitors of the ERG Ets/DNA interaction: TR assay against cherry picks). Conditions: ERG Ets domain-DNA fluorescence polarization, Texas red probe; at 154 µM (top of the series).
In short: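 Polarization read sequentially for fluorescein (ex 480/em 535 nm) and Texas red (ex 555/em 632 nm) probes, 5 nM and 100 nM solutions, displaced from His-ERG Ets domain (1 uM solution), pH 7.5 Tris/KCl/EDTA/DTT buffer.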
Note: % of control where 0% means no effect.

By UniProt entry, the sequences of proteins in these tests, tags left out. Where a name states a change or a piece, a line headed by the entry shows the natural chain unless it says otherwise.
UniProt P11308: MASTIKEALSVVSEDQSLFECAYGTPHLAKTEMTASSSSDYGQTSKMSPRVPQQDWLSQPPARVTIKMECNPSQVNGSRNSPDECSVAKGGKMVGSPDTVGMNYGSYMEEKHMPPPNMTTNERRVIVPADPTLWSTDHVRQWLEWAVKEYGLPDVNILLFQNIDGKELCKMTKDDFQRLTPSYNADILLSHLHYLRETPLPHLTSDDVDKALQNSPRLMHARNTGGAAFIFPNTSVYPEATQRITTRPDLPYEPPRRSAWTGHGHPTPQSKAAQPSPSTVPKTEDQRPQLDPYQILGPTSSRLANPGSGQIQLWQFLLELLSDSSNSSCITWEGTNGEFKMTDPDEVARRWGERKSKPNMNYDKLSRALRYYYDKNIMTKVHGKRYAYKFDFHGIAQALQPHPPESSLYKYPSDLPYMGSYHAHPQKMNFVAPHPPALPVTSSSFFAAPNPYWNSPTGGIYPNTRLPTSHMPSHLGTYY

Activity change, negative = inhibition, inactive:
COc1ccc(C(=O)Nc2nc(-c3ccc(OC)cc3)c(-c3ccc([N+](=O)[O-])cc3)s2)cc1 2.54%, Cc1ccc(OCCn2cc(/C=N/NC(=O)c3ccncc3)c3ccccc32)cc1 -10.8%, CCN(C(=O)COC(=O)c1ccc(=O)n(Cc2ccccc2)n1)C1CCS(=O)(=O)C1 (stereo not given) 1.68%, COc1cc(CO)ccc1OCC(=O)Nc1cccc2ccccc12 -4.89%, COCCN1C=C2C(=O)C(C)(OC(=O)CCC(=O)OC)C(=O)C=C2C=C1C1CC1 (stereo not given) 1.47%, O=C(NCc1cccs1)c1ccc([N+](=O)[O-])cc1 -1.6%, O=C(CN1C(=O)NC2(CCCC2)C1=O)Nc1nc2ccccc2s1 -9.58%, CC(=O)Oc1ccc(C(=O)Nc2ccccc2C(=O)Nc2ccc(C(=O)O)cc2)cc1 -1.26%, COc1cc(NC(=O)COC(=O)CNC(=O)C2CCCCC2)cc(OC)c1 6.23%, O=C1c2ccc3c4c(ccc(c24)C(=O)N1CCCCO)C(=O)N(CCCCO)C3=O -5.89%, COc1cccc(NC(=O)NNC(=O)c2ccc3c(c2)NC(=O)C(C)(C)O3)c1 4.75%, COCC(=O)NCc1ccc2c(c1)cc(C)n2C 1.54%, Cc1cc(C)c(/C=C2\C(=O)Nc3ccccc32)[nH]1 365%, COC(=O)C(CCSC)NC(=O)c1cc2c(n(-c3ccccc3)c1=O)CC(C)(C)CC2=O (stereo not given) 4.45%, O=C(/C=C/c1ccccc1)NCCc1nc2ccccc2[nH]1 -1.61%, CC1(C)CC(=O)C2=C(C1)Nc1ccccc1NC2c1nc2ccccc2[nH]1 (stereo not given) 1.35%, O=C(NCCN1CCN(Cc2ccccc2Cl)CC1)Nc1ccccc1 20.2%, COc1ccc(CCNC(=O)c2cccc(S(=O)(=O)N3CCCC3)c2)cc1 0.22%, COc1cnn(-c2cccc(Cl)c2)c(=O)c1Cl -8.08%, CCn1nc(C)cc1C(=O)N1CCCC(N2CCN(Cc3ccc4c(c3)OCO4)CC2)C1 (stereo not given) 0.513%, COc1ccc(CC(=O)OCC(=O)c2ccc(OC)cc2)cc1 2.92%, S=c1[nH]nc(CSCCOc2ccccc2)o1 -12.2%, O=C(COC(=O)COc1ccc(Cl)cc1)NCCCc1ccccc1 -14.4%, COc1ccc(CNCCC2(C(C)C)CCOC(C)(C)C2)cc1 (stereo not given) 5.23%, CC(=O)Nc1cccc(S(C)(=O)=O)c1 1.2%, COc1ccc(-c2cc(C(F)(F)F)n3nc(C(=O)N(C)Cc4ccccc4)cc3n2)cc1OC -11.8%, CC(C)c1ccc(NC(=O)CSc2nc(-c3ccccc3F)nc3nc[nH]c23)cc1 4.16%, COCCn1c(=O)c2c(nc3n2CC(C)CN3CCc2ccccc2)n(C)c1=O (stereo not given) -9.7%, CC(C)(C)c1ccc(C(=O)NCC(=O)OCC(=O)Nc2ccccc2[N+](=O)[O-])cc1 -11%, CC(=O)Nc1ccc(S(=O)(=O)NCC(=O)OCC(=O)NCc2ccco2)cc1 12.3%, O=C(CCC1CCCN(C(=O)c2ccsc2)C1)NCc1ccc(F)c(F)c1 (stereo not given) 13.5%, O=C(Nc1ccccc1)c1sccc1Oc1ccc([N+](=O)[O-])cc1F -2.74%, CC(=O)NNc1cc(N2CCOCC2)nc(N2CCOCC2)n1 30%, CC(C)n1cc(/C=N/NC(=O)COc2cccc3cccnc23)c2ccccc21 -3.87%, CC(C)CNC(=O)CCc1nc(-c2ccccc2)no1 -4.45%, CC1CC(C)CN(CCCNS(=O)(=O)c2cc(Br)cc3c2N(C(=O)C2CC2)CC3)C1 (stereo not given) -24.7%, COc1ccc(NC(=O)COc2ccccc2Cc2ccccc2)cn1 -10.6%, NC(=O)c1cc(S(=O)(=O)NCCc2ccccc2)cs1 -0.986%, Cc1cccc(NC2(C(=O)O)CCCC2)c1 -8.83%, Cc1cccc(C(=O)NCCNc2nc3cc(C)c(C)cc3cc2C)c1 -15%, CN(C(=O)CSc1nc(-c2ccccc2)c(-c2ccccc2)o1)C1CCS(=O)(=O)C1 (stereo not given) 1.33%, COc1ccccc1NS(=O)(=O)c1cc(C(=O)N2CCCC2)ccc1C 6.04%, COc1ccc(C(=O)c2cccc(C(=O)c3ccc(OC)c(C)c3)c2)cc1C -5.02%, Cc1cnccc1CNC(=O)CC1C(=O)NCCN1CC(C)(C)C (stereo not given) -7.1%, O=C(O)CNC(=O)CC1S/C(=N/N=C/c2ccccc2O)NC1=O (stereo not given) 5.01%, Cc1cccc(C)c1OCC(=O)N(Cc1ccc(Cl)cc1)C1CCS(=O)(=O)C1 (stereo not given) -3.8%, COc1cccc(-c2nn(C)c3sc(C(=O)NCc4ccc(OC)cc4OC)cc23)c1 -7.44%, Cc1cccc(C)c1NC(=O)C1(N2C(=O)CC2c2ccccc2)CCCCC1 (stereo not given) 0.216%, CNCCCOc1cc(C)cc(C)c1C 4.73%, CCN(CC)CCNC(C(=O)Nc1ccc([N+](=O)[O-])cc1Br)c1ccccc1 (stereo not given) 2.72%, Cc1nn(CC(=O)NCCCN2CCCC2)c(=O)c2nn(-c3ccccc3)c(C)c12 -6.92%, Cc1ccc2nc(COc3cccc(NC(=O)c4cccc(Cl)c4)c3)cc(=O)n2c1 -1.72%, COc1ccc(C2c3[nH]c4ccccc4c3C[C@H]3C(=O)N(c4ccccc4C(=O)N4CCC[C@@H]4C(=O)O)C(=O)N23)cc1 (stereo not given in full) -1.72%, O=C1CCC(C(=O)N2CCCCO2)CN1CCc1ccc(Cl)cc1 (stereo not given) -5.39%, COCCCC/C(=N\OCCN)c1ccc(C(F)(F)F)cc1 -9.14%, COc1ccc([N+](=O)[O-])c(OC)c1C(=O)NC(=O)Nc1c(F)c(F)c(F)c(F)c1F -7%, O=C(/C=C/c1ccc(Br)cc1)c1ccc(NC2=NCCCS2)cc1 5.28%, NC(=O)c1ccccc1O -0.849%, CCCCC1=CC2=CC(=O)C(C)(OC(=O)CC)C(=O)C2=CN1CCOC (stereo not given) -0.532%, O=C(COc1ccc(S(=O)(=O)N2CCOCC2)cc1Cl)NCCCn1ccnc1 -10.1%, Oc1ccc(NCc2ccc(OCc3ccccc3)cc2)cc1 -2.46%, CCc1ccc(Nc2ncnc3nc[nH]c23)cc1 -5.72%, COc1cc(C(=O)Nc2ccc(Cl)c([N+](=O)[O-])c2)cc(OC)c1OC -8.44%, S=C(NCCc1ccccc1)Nc1ccc(Cl)cc1Cl 0.951%, O=C(CSc1nnnn1-c1ccccc1)Nc1nc(-c2ccccc2)ns1 2.58%, CC(NC(=O)c1cn(C)c2ccc(S(=O)(=O)N3CCCC3)cc2c1=O)c1ccccc1 (stereo not given) -1.61%, CCOC(=O)C1CCCN(C(=O)c2cc3cc(OC)c(OC)cc3[nH]2)C1 (stereo not given) 0.21%, Oc1ccc(NCc2cccc(OCc3ccc(F)cc3)c2)cc1 -4.09%, CCCCCNc1nc(NCCCO)c(C#N)c2c1CN(C)CC2 -5.54%, CS(=O)(=O)c1ccc([C@@H](O)[C@@H](CF)NC(=O)C(Cl)Cl)cc1 1.25%, Cc1ccnn1-c1ccc(C(=O)OCC(=O)Nc2ccc(F)cc2)cc1 -5.48%, COCCN(C(=O)COC(=O)C1(c2ccccc2)CC1)c1c(N)n(CC(C)C)c(=O)[nH]c1=O 4.6%, COC(=O)c1cc(NC(=O)c2c(Cl)cnn2C)cc(C(=O)OC)c1 -8.91%, CCCCn1c(N)c(N(CC(C)C)C(=O)c2ccc(S(=O)(=O)N3CCC(C)CC3)cc2)c(=O)[nH]c1=O -1.13%, O=C(NNC(=O)c1ccc(S(=O)(=O)N2CCCCC2)cc1)c1ccc(F)cc1 0.197%, CCOc1ccc(CN2CCNC(=O)C2CC(=O)NCCCn2ccnc2)cc1 (stereo not given) -11.6%, Cn1nc(C(F)(F)F)c(C#N)c1N1CCN(c2ccccn2)CC1 9.86%, COC(=O)C1=C(C)NC(C)=C(C(=O)OC)C1c1ccc(-c2cccc(Cl)c2Cl)o1 4.57%, Cc1ccc(OCCN(C)C(=O)c2cc(COc3ccc(F)cc3F)on2)cc1 -11.8%, COc1cc(CCC(=O)OCC(=O)NC2CCCC(C)C2C)cc(OC)c1OC (stereo not given) 4.55%, O=C(COC(=O)c1cc(-c2cccc3ccccc23)nc2ccccc12)NC1CCS(=O)(=O)C1 (stereo not given) 59.3%, COc1ccc(NC(=S)NCc2ccc3c(c2)cc(C)n3C)cc1 -0.43%, COc1ccc(-c2noc(CSc3nc4ccccc4c(=O)n3-c3ccccc3)n2)cc1 4.35%, CC1(C)CC(=O)/C(=C\c2cccc([N+](=O)[O-])c2)C(C)(C)N1 5.47%, Cc1cnc(C(=O)Nc2ccccc2-c2ccc(C)o2)cn1 2.43%, S=c1[nH]nc(Cc2n[nH]c(=S)n2-c2ccccc2)n1-c1ccccc1 -3.36%, CCOc1ccccc1N1CCN(C(=O)c2cc(S(=O)(=O)N(C)C)ccc2N2CCCC2)CC1 0.688%, COc1ccc(CCN(Cc2cccs2)S(=O)(=O)c2ccc(-n3cnnn3)c(OC)c2)cc1OC 0.377%, Cc1occc1C(=O)NNS(=O)(=O)c1ccc(Cl)cc1 -6.78%, COc1ccc(N(CCC(=O)Nc2ccccc2F)S(=O)(=O)c2ccc(C)cc2C)cc1 7.19%
